Source: publication PMC6588657 (2018)
Results are given in words; binding and its absence hold for the method and conditions named. In cells and extracts the contact can be indirect. Some binding calls cover weakened binding; strength is not graded here. For some assays here: Where a sequence is shown, tags or fusion partners need not be part of it.

Amino acid sequences for entries named in this document (tags omitted). A change or cut given only in a name is not applied to a line headed by its entry.
UniProt Q9C0E8: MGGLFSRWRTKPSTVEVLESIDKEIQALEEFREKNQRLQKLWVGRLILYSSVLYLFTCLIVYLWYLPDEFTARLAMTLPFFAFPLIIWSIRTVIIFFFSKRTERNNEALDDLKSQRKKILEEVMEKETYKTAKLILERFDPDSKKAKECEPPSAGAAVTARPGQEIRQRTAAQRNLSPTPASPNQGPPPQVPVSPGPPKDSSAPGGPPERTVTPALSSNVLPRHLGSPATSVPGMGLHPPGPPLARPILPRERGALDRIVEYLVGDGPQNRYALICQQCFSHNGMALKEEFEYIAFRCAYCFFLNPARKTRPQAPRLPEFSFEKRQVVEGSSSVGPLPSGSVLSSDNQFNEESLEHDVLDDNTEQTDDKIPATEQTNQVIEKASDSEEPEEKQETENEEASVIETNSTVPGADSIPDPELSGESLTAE

How the values were obtained:
Flag-ATL1 R77A (human) = target: T1, Flag-ATL1 R77A (human) (UniProt Q8WXF7); assay: co-IP; Flag-ATLs and Lnp-Myc co-transfected into COS-7 cells; Flag-ATLs precipitated by anti-Flag agarose from lysates with 1% Triton X-100; blot with anti-Myc and anti-Flag
T1 sequence: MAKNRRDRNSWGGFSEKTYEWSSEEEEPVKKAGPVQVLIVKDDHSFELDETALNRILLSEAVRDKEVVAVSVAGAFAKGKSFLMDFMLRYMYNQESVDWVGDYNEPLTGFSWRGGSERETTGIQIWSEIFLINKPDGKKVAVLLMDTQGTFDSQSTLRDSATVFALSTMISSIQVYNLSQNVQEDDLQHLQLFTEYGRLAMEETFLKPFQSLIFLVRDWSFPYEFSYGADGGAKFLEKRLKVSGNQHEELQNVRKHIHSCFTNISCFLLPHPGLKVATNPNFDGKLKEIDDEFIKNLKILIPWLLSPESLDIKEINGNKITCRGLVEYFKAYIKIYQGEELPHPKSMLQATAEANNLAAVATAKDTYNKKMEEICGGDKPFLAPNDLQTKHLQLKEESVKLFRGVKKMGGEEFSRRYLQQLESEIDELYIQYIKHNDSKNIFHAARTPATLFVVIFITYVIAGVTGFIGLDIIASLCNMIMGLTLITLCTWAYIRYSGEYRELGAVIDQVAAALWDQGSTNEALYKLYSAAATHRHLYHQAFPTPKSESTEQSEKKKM

Flag-ATL1 (human) = target: T2, Flag-ATL1 (human) (UniProt Q8WXF7); assay: as above
T2 sequence: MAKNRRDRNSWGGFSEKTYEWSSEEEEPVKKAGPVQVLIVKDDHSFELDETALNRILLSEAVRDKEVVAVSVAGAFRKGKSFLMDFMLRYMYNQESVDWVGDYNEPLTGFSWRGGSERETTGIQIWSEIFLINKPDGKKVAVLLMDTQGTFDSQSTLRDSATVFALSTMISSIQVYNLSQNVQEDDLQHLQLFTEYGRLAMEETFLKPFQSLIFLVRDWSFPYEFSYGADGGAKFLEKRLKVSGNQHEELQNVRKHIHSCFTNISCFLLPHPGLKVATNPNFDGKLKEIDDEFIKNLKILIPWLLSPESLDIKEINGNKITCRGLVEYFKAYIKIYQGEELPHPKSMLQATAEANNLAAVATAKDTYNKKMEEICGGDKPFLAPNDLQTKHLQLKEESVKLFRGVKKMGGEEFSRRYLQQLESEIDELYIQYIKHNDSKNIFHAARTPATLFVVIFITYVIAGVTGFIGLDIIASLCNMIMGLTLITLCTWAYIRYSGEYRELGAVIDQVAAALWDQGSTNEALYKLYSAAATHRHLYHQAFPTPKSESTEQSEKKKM

Flag-ATL3 (human) = target: T3, Flag-ATL3 (human) (UniProt Q6DD88); assay: as above
T3 sequence: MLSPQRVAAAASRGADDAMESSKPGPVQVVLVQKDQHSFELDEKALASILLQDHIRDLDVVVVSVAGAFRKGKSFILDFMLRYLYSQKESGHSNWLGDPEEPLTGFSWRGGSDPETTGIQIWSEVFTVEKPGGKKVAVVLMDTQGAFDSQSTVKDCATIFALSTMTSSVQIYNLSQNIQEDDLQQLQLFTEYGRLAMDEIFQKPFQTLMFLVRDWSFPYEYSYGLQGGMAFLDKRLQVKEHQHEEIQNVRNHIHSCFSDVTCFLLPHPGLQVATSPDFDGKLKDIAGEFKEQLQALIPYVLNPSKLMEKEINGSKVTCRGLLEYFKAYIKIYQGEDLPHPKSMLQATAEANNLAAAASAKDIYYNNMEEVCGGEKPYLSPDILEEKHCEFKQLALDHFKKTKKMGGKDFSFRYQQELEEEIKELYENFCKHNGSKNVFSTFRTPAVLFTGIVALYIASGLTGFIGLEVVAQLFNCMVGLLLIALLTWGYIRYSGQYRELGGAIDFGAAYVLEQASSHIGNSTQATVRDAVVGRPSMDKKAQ

[1] = target: full-length, C-terminal, Flag-tagged human Lnp (human) (UniProt Q9C0E8); assay: co-IP; Lnp-Myc co-expressed with Lnp-Flag or Flag-tagged truncations in COS-7 cells; Flag-tagged protein precipitated by anti-Flag agarose from lysates with 1% Triton X-100; blot with anti-Flag and anti-Myc
[2] = target: full-length, C-terminal, Flag-tagged human Lnp (human) (UniProt Q9C0E8); assay: co-IP; Fig. S3B; legend not shown; Lnp G2A against ATL1, ATL2 and ATL3
Lnp G2A (human) = Lnp G2A (human) (UniProt Q9C0E8); assay: as above
[3] = target: full-length, C-terminal, Flag-tagged human Lnp (human) (UniProt Q9C0E8); assay: co-IP; Myc-ATL3 co-expressed with Flag-tagged wild-type or mutant Lnp in COS-7 cells; Lnp-Flag proteins precipitated by anti-Flag agarose from lysates with 1% Triton X-100; blot with anti-Flag and anti-Myc

Molecule	binding (Flag-ATL1 R77A (human))	binding (Flag-ATL1 (human))	binding (Flag-ATL3 (human))	binding [1]	binding [2]	binding (Lnp G2A (human))	binding [3]
C-terminal Myc-tagged wild-type human Lnp (from UniProt Q9C0E8 1-428)	binds	binds weakly	binds	binds	–	–	–
Myc-ATL3 (protein, UniProt Q6DD88 1-541) MLSPQRVAAAASRGADDAMESSKPGPVQVVLVQKDQHSFELDEKALASILLQDHIRDLDVVVVSVAGAFRKGKSFILDFMLRYLYSQKESGHSNWLGDPEEPLTGFSWRGGSDPETTGIQIWSEVFTVEKPGGKKVAVVLMDTQGAFDSQSTVKDCATIFALSTMTSSVQIYNLSQNIQEDDLQQLQLFTEYGRLAMDEIFQKPFQTLMFLVRDWSFPYEYSYGLQGGMAFLDKRLQVKEHQHEEIQNVRNHIHSCFSDVTCFLLPHPGLQVATSPDFDGKLKDIAGEFKEQLQALIPYVLNPSKLMEKEINGSKVTCRGLLEYFKAYIKIYQGEDLPHPKSMLQATAEANNLAAAASAKDIYYNNMEEVCGGEKPYLSPDILEEKHCEFKQLALDHFKKTKKMGGKDFSFRYQQELEEEIKELYENFCKHNGSKNVFSTFRTPAVLFTGIVALYIASGLTGFIGLEVVAQLFNCMVGLLLIALLTWGYIRYSGQYRELGGAIDFGAAYVLEQASSHIGNSTQATVRDAVVGRPSMDKKAQ	–	–	–	–	binds	binds	binds
ATL1 (Fig. S3B) (protein, UniProt Q8WXF7 1-558) MAKNRRDRNSWGGFSEKTYEWSSEEEEPVKKAGPVQVLIVKDDHSFELDETALNRILLSEAVRDKEVVAVSVAGAFRKGKSFLMDFMLRYMYNQESVDWVGDYNEPLTGFSWRGGSERETTGIQIWSEIFLINKPDGKKVAVLLMDTQGTFDSQSTLRDSATVFALSTMISSIQVYNLSQNVQEDDLQHLQLFTEYGRLAMEETFLKPFQSLIFLVRDWSFPYEFSYGADGGAKFLEKRLKVSGNQHEELQNVRKHIHSCFTNISCFLLPHPGLKVATNPNFDGKLKEIDDEFIKNLKILIPWLLSPESLDIKEINGNKITCRGLVEYFKAYIKIYQGEELPHPKSMLQATAEANNLAAVATAKDTYNKKMEEICGGDKPFLAPNDLQTKHLQLKEESVKLFRGVKKMGGEEFSRRYLQQLESEIDELYIQYIKHNDSKNIFHAARTPATLFVVIFITYVIAGVTGFIGLDIIASLCNMIMGLTLITLCTWAYIRYSGEYRELGAVIDQVAAALWDQGSTNEALYKLYSAAATHRHLYHQAFPTPKSESTEQSEKKKM	–	–	–	–	–	binds	–
